Assay results published in doi:10.1101/791277.
Results are given in words; binding and its absence hold for the method and conditions named. Binding seen in cells or lysates may run through a third protein. Some entries that bind do so weakly or less than the wild type. Tags and fused reporters may be left off the sequences shown.

Chains of the proteins cited; added tags and fusions are not shown. Lines headed by an entry give the natural chain unless they say otherwise; changes in a name come on top.
UniProt P27986, whole entry: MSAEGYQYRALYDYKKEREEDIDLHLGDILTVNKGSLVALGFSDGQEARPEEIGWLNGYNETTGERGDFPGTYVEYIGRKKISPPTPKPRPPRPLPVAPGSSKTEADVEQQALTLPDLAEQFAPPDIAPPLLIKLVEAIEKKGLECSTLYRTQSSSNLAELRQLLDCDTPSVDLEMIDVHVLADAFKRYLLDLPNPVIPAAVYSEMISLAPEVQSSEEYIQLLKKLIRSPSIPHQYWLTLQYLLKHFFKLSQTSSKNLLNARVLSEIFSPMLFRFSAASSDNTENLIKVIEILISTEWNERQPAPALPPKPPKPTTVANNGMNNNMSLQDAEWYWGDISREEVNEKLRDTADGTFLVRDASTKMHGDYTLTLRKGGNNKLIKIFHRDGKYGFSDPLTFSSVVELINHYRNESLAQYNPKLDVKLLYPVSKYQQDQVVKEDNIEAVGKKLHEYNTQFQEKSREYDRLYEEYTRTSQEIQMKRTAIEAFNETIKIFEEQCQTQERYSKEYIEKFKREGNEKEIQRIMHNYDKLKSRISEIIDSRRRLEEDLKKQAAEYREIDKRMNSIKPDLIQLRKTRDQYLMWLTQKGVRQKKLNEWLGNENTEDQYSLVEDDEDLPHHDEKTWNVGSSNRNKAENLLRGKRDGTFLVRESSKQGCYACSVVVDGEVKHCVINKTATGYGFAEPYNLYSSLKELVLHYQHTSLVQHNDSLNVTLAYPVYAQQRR
UniProt O08908, whole entry: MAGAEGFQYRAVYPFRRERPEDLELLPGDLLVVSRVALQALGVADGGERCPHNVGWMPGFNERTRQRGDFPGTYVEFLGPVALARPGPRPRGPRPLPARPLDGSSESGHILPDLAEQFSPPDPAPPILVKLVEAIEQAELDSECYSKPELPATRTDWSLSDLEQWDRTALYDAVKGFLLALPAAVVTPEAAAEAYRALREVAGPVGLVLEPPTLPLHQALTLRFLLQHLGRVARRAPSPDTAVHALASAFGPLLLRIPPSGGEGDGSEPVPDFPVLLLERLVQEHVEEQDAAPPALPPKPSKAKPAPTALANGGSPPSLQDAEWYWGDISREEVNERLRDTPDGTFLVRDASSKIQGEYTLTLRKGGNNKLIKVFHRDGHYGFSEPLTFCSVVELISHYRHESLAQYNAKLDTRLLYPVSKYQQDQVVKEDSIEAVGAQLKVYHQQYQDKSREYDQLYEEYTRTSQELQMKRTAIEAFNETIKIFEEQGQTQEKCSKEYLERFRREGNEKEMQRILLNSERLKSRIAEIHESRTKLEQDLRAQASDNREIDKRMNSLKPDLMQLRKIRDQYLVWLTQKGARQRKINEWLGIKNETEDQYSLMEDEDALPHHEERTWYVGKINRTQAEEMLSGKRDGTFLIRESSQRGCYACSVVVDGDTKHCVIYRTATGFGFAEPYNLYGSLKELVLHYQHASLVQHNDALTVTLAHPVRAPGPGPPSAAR

Assays:
Assay in all cases: co-IP
[1] = target: FLAG-p55γ (full-length human PI3-Kinase regulatory subunit p55γ) (human) (UniProt Q92569)
[2] = target: FLAG-p85α (full-length human PI3-Kinase regulatory subunit p85α) (human) (UniProt P27986)
[3] = target: FLAG-p85β (full-length mouse PI3-Kinase regulatory subunit p85β) (mouse) (UniProt O08908)

Measured: binding

B1: HA-dACK (kinase-dead ACK mutant, K158R) (protein, UniProt Q07912 1-1038)
chain: MQPEEGTGWLLELLSEVQLQQYFLRLRDDLNVTRLSHFEYVKNEDLEKIGMGRPGQRRLWEAVKRRKALCKRKSWMSKVFSGKRLEAEFPPHHSQSTFRKTSPAPGGPAGEGPLQSLTCLIGEKDLRLLEKLGDGSFGVVRRGEWDAPSGKTVSVAVRCLKPDVLSQPEAMDDFIREVNAMHSLDHRNLIRLYGVVLTPPMKMVTELAPLGSLLDRLRKHQGHFLLGTLSRYAVQVAEGMGYLESKRFIHRDLAARNLLLATRDLVKIGDFGLMRALPQNDDHYVMQEHRKVPFAWCAPESLKTRTFSHASDTWMFGVTLWEMFTYGQEPWIGLNGSQILHKIDKEGERLPRPEDCPQDIYNVMVQCWAHKPEDRPTFVALRDFLLEAQPTDMRALQDFEEPDKLHIQMNDVITVIEGRAENYWWRGQNTRTLCVGPFPRNVVTSVAGLSAQDISQPLQNSFIHTGHGDSDPRHCWGFPDRIDELYLGNPMDPPDLLSVELSTSRPPQHLGGVKKPTYDPVSEDQDPLSSDFKRLGLRKPGLPRGLWLAKPSARVPGTKASRGSGAEVTLIDFGEEPVVPALRPCAPSLAQLAMDACSLLDETPPQSPTRALPRPLHPTPVVDWDARPLPPPPAYDDVAQDEDDFEICSINSTLVGAGVPAGPSQGQTNYAFVPEQARPPPPLEDNLFLPPQGGGKPPSSAQTAEIFQALQQECMRQLQAPAGSPAPSPSPGGDDKPQVPPRVPIPPRPTRPHVQLSPAPPGEEETSQWPGPASPPRVPPREPLSPQGSRTPSPLVPPGSSPLPPRLSSSPGKTMPTTQSFASDPKYATPQVIQAPGPRAGPCILPIVRDGKKVSSTHYYLLPERPSYLERYQRFLREAQSPEEPTPLPVPLLLPPPSTPAPAAPTATVRPMPQAALDPKANFSTNNSNPGARPPPPRATARLPQRGCPGDGPEAGRPADKIQMAMVHGVTTEECQAALQCHGWSVQRAAQYLKVEQLFGLGLRPRGECHKVLEMFDWNLEQAGCHLLGSWGPAHHKR
binds: all assays above
